Cell number after 72 h of treatment

Values as published with doi:10.1371/journal.pone.0140310, rounded.

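Human melanoma cell lines in 1,536-well plates were treated with two drugs together for 72 h, then fixed, stained and imaged. The read-out is cell count (nuclei) in % of the DMSO control; lower values mean stronger growth inhibition or killing. Every drug was used at one fixed concentration, the lower of two screened (a fifth of the higher). These are primary screening values without error estimates.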 This is part of the screen, not chosen by result.

First drug in all entries: darinaparsin, 400 nM, C[As](C)SC[C@H](NC(=O)CC[C@H](N)C(=O)O)C(=O)NCC(=O)O

Partner	A375
C/C(O)=C(\C#N)C(=O)Nc1cc(Br)ccc1Br at 2000 nM	84.2
CCCCCCCCCCCCCCCCCCOP(=O)([O-])OC1CC[N+](C)(C)CC1 at 400 nM	65.2
C[C@]12O[C@H](C[C@]1(O)CO)n1c3ccccc3c3c4c(c5c6ccccc6n2c5c31)CNC4=O at 4 nM	93.5
Cn1c(Nc2ccc(C(F)(F)F)cc2)nc2cc(Oc3ccnc(-c4ncc(C(F)(F)F)[nH]4)c3)ccc21 at 80 nM	85.0
Cn1c(=O)n(-c2ccc(C(C)(C)C#N)cc2)c2c3cc(-c4cnc5ccccc5c4)ccc3ncc21 at 4 nM	92.3
Nc1nc(F)nc2c1ncn2[C@@H]1O[C@H](CO)[C@@H](O)[C@@H]1O at 200 nM	15.3
Cc1cc(Nc2cc(N3CCN(C)CC3)nc(/C=C/c3ccccc3)n2)n[nH]1 at 40 nM	84.6
O=c1cc(-c2cccc3c2Sc2ccccc2S3)oc(N2CCOCC2)c1 at 1000 nM	104
Cc1ccc(Nc2nccc(N(C)c3ccc4c(C)n(C)nc4c3)n2)cc1S(N)(=O)=O at 400 nM	107
CC(=O)O[C@@]12CO[C@@H]1C[C@H](O)[C@@]1(C)C(=O)[C@H](O)C3=C(C)[C@@H](OC(=O)[C@H](O)[C@@H](NC(=O)OC(C)(C)C)c4ccccc4)C[C@@](O)([C@@H](OC(=O)c4ccccc4)[C@H]21)C3(C)C at 0.1 nM	28.0
CCCCCCCCc1ccc(CCC(N)(CO)CO)cc1 at 2000 nM	72.4
O=C(/C=C/c1cccnc1)NCCCCC1CCN(C(=O)c2ccccc2)CC1 at 10 nM	106
C=C(c1ccc(C(=O)O)cc1)c1cc2c(cc1C)C(C)(C)CCC2(C)C at 2000 nM	128
COc1cc2ncnc(Nc3ccc(Oc4ccccc4)cc3)c2cc1OC at 2000 nM	115
O=C(O)c1ccc(-c2c[nH]c3ncc(-c4ccccc4)cc23)cc1C1CCCC1 at 160 nM	80.5
CCCCCCCCCCCC1=C(O)C(=O)C=C(O)C1=O at 1200 nM	91.6
COc1ccc(C2=N[C@@H](c3ccc(Cl)cc3)[C@@H](c3ccc(Cl)cc3)N2C(=O)N2CCNC(=O)C2)c(OC(C)C)c1 at 100 nM	92.8
CCN(CC)CCCCNc1ncc2cc(-c3cc(OC)cc(OC)c3)c(NC(=O)NC(C)(C)C)nc2n1 at 100 nM	96.6
CC(C)CCN1c2nc(Nc3cc(F)c(O)c(F)c3)ncc2N(C)C(=O)C1C (stereo not drawn) at 200 nM	76.5
COc1cc(N2CCC(N3CCN(C)CC3)CC2)ccc1Nc1ncc(Cl)c(Nc2ccccc2S(=O)(=O)C(C)C)n1 at 80 nM	81.0
C[C@@H](N)c1ccc(C(=O)Nc2ccnc3[nH]ccc23)cc1 at 400 nM	89.9
COc1ccc(-c2ccc3c(N4CCOCC4)nc(N4C[C@@H](C)O[C@@H](C)C4)nc3n2)cc1CO at 20 nM	93.6
COc1ccc(COc2ccc(Cc3cnc(N)nc3N)cc2OC)cc1 at 1000 nM	93.3
Cn1nnc2c(C(N)=O)ncn2c1=O at 2000 nM	90.4
CS(=O)(=O)CCNCc1ccc(-c2ccc3ncnc(Nc4ccc(OCc5cccc(F)c5)c(Cl)c4)c3c2)o1 at 800 nM	76.4
Cc1cc([N+](=O)[O-])ccc1NS(=O)(=O)c1cc(Cl)ccc1Cl at 1000 nM	91.9
Oc1cc(-c2nc(-c3ccccc3)[nH]c2-c2ccncc2)ccc1Cl at 200 nM	70.4
COCC[n+]1c2c(n(Cc3cnccn3)c1C)C(=O)c1ccccc1C2=O at 0.4 nM	86.4
Cc1nc(Nc2ncc(C(=O)Nc3c(C)cccc3Cl)s2)cc(N2CCN(CCO)CC2)n1 at 4 nM	88.0
CCc1ccc(CCOc2ccc(CC3SC(=O)NC3=O)cc2)nc1 (stereo not drawn) at 2000 nM	91.1
Oc1nc(-c2ccc(C(F)(F)F)cc2)nc2c1CSCC2 at 2000 nM	84.2

3 of the entries, repeated:

Partner	A375
Cn1c(=O)n(-c2ccc(C(C)(C)C#N)cc2)c2c3cc(-c4cnc5ccccc5c4)ccc3ncc21 at 4 nM	92.3
COc1ccc(-c2ccc3c(N4CCOCC4)nc(N4C[C@@H](C)O[C@@H](C)C4)nc3n2)cc1CO at 20 nM	93.6
Cc1cc(Nc2cc(N3CCN(C)CC3)nc(/C=C/c3ccccc3)n2)n[nH]1 at 40 nM	84.6